According to PMC5493634, “Intermolecular steric inhibition of Ephexin4 is relieved by Elmo1” (Scientific Reports, 2017):
Results are given in words; binding and its absence hold for the method and conditions named. In cells and extracts the contact can be indirect. Some results given as binding are weak or reduced against the parent protein; the word gives no strength.

The chains behind the UniProt entries cited, without tags or fusion partners. Residues count along the entry.
UniProt Q92556, residues 532-707: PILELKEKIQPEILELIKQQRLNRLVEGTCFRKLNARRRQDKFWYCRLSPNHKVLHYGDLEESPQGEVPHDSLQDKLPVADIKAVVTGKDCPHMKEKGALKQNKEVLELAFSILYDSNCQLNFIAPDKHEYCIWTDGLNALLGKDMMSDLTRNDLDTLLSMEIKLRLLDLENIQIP
UniProt P84095: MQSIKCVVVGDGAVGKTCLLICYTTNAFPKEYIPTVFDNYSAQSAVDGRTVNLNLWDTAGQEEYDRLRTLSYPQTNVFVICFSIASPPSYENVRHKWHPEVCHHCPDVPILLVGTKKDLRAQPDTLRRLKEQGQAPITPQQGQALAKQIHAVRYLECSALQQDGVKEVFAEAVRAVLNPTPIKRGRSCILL

How the values were obtained:
[1] = target: T1, SH3 domain of Ephexin4 (UniProt Q5VV41); assay: pull-down; 293T cells co-transfected; lysates precipitated with glutathione–Sepharose beads, 2 h at 4 °C; co-precipitated proteins detected with anti-GFP (Fig. 3a,d) or anti-FLAG (Fig. 3b,c, 4a)
T1 sequence: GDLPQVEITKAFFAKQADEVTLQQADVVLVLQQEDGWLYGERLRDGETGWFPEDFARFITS

[2] = target: T2, Ephexin4 (full-length, wild type) (UniProt Q5VV41); assay: co-IP; RhoG binding assay: 293T cells co-transfected, lysis buffer with 10 µM EDTA; anti-FLAG precipitation, RhoG detected with anti-GFP; with or without co-expressed SH3 domain (Fig. 4b) or exogenous Elmo1 (Fig. 4d)
T2 sequence: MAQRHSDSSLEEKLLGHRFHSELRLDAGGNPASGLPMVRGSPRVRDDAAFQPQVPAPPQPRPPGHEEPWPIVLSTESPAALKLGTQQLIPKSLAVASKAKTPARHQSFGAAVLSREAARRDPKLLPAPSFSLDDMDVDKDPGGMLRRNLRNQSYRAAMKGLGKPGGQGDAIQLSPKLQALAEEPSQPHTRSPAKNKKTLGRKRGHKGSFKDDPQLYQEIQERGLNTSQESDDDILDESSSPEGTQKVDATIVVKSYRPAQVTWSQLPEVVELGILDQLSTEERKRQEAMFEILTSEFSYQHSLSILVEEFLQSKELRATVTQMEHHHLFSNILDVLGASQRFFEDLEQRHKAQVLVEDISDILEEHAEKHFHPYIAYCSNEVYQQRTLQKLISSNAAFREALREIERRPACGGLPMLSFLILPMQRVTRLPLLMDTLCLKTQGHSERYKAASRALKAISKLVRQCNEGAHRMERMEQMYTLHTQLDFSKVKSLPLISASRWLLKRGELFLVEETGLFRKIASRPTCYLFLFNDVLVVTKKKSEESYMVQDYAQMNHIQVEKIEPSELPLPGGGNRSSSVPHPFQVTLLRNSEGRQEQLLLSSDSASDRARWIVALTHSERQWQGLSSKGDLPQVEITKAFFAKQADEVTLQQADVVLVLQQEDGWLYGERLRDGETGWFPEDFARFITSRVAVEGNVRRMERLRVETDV

[3] = target: T3, Ephexin4^280-628 (UniProt Q5VV41); assay: as above
T3 sequence: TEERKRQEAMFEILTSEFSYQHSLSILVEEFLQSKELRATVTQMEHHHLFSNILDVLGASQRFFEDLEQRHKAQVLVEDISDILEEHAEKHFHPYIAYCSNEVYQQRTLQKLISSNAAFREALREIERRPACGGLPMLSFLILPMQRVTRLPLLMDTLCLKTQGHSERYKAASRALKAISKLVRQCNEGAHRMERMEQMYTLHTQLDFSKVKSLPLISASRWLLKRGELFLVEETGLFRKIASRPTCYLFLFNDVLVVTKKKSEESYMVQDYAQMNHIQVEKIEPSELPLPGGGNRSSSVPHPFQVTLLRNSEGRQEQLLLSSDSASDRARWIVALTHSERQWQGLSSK

[4] = target: T1, SH3 domain of Ephexin4; assay: co-IP; 293T cells co-transfected; anti-FLAG immunoprecipitation of lysates (1% Triton X-100, 150 mM NaCl, pH 7.6), 2 h at 4 °C; anti-GFP immunoblot (Fig. 2a-c)
[5] = target: T2, Ephexin4 (full-length, wild type); assay: as above
[6] = target: T1, SH3 domain of Ephexin4; assay: pull-down; 293T cells co-transfected; lysates precipitated with glutathione–Sepharose beads, 2 h at 4 °C; co-precipitated proteins detected with anti-GFP (Fig. 3a,d) or anti-FLAG (Fig. 3b,c, 4a); remark: listed apart in the source

Molecule: Elmo1^532-707 (from UniProt Q92556 532-707) (domain or fragment)
- binding [1]: no binding

Molecule: RhoG (nucleotide-free) (from UniProt P84095 1-191)
- binding [2]: binds
- binding [3]: binds

B1: Ephexin4^280-626 (domain or fragment, UniProt Q5VV41 280-626)
chain: TEERKRQEAMFEILTSEFSYQHSLSILVEEFLQSKELRATVTQMEHHHLFSNILDVLGASQRFFEDLEQRHKAQVLVEDISDILEEHAEKHFHPYIAYCSNEVYQQRTLQKLISSNAAFREALREIERRPACGGLPMLSFLILPMQRVTRLPLLMDTLCLKTQGHSERYKAASRALKAISKLVRQCNEGAHRMERMEQMYTLHTQLDFSKVKSLPLISASRWLLKRGELFLVEETGLFRKIASRPTCYLFLFNDVLVVTKKKSEESYMVQDYAQMNHIQVEKIEPSELPLPGGGNRSSSVPHPFQVTLLRNSEGRQEQLLLSSDSASDRARWIVALTHSERQWQGLS
- binding [4]: binds

B2: SH3 domain of Ephexin4 (domain or fragment, UniProt Q5VV41 629-689)
chain: GDLPQVEITKAFFAKQADEVTLQQADVVLVLQQEDGWLYGERLRDGETGWFPEDFARFITS
- binding [3]: binds

B3: Ephexin4 (full-length, wild type) (natural protein, UniProt Q5VV41 1-709, looked up)
chain: MAQRHSDSSLEEKLLGHRFHSELRLDAGGNPASGLPMVRGSPRVRDDAAFQPQVPAPPQPRPPGHEEPWPIVLSTESPAALKLGTQQLIPKSLAVASKAKTPARHQSFGAAVLSREAARRDPKLLPAPSFSLDDMDVDKDPGGMLRRNLRNQSYRAAMKGLGKPGGQGDAIQLSPKLQALAEEPSQPHTRSPAKNKKTLGRKRGHKGSFKDDPQLYQEIQERGLNTSQESDDDILDESSSPEGTQKVDATIVVKSYRPAQVTWSQLPEVVELGILDQLSTEERKRQEAMFEILTSEFSYQHSLSILVEEFLQSKELRATVTQMEHHHLFSNILDVLGASQRFFEDLEQRHKAQVLVEDISDILEEHAEKHFHPYIAYCSNEVYQQRTLQKLISSNAAFREALREIERRPACGGLPMLSFLILPMQRVTRLPLLMDTLCLKTQGHSERYKAASRALKAISKLVRQCNEGAHRMERMEQMYTLHTQLDFSKVKSLPLISASRWLLKRGELFLVEETGLFRKIASRPTCYLFLFNDVLVVTKKKSEESYMVQDYAQMNHIQVEKIEPSELPLPGGGNRSSSVPHPFQVTLLRNSEGRQEQLLLSSDSASDRARWIVALTHSERQWQGLSSKGDLPQVEITKAFFAKQADEVTLQQADVVLVLQQEDGWLYGERLRDGETGWFPEDFARFITSRVAVEGNVRRMERLRVETDV
notes: Ephexin4, guanine nucleotide-exchange factor for RhoG; full-length; also called Epx4; Ephexin4-FLAG
- binding [5]: binds

B4: N20 region of Ephexin4 (amino acids 224–378) (domain or fragment, UniProt Q5VV41 224-378)
chain: LNTSQESDDDILDESSSPEGTQKVDATIVVKSYRPAQVTWSQLPEVVELGILDQLSTEERKRQEAMFEILTSEFSYQHSLSILVEEFLQSKELRATVTQMEHHHLFSNILDVLGASQRFFEDLEQRHKAQVLVEDISDILEEHAEKHFHPYIAYC
- binding [6]: binds
